Results reported in PubChem BioAssay AID588590 (National Center for Advancing Translational Sciences (NCATS), 2011).
Out of some 390,000 compounds screened, about 4,000 (1%) were called active. The shares of active, inactive and inconclusive entries below differ from those in the screen. Calls come from the whole dose curve; as a rule, active = well fitted inhibition curve with a large enough effect; inconclusive = small, poorly fitted or top-dose-only effect, or another doubt; inactive = no such curve, though single readings can be large or run the other way. Potencies beside an inconclusive call are fits to weak or partial responses and may not hold up.

By UniProt entry, the sequences of proteins in these tests, tags left out. Where a name states a change or a piece, a line headed by the entry shows the natural chain unless it says otherwise.
UniProt Q9UNA4: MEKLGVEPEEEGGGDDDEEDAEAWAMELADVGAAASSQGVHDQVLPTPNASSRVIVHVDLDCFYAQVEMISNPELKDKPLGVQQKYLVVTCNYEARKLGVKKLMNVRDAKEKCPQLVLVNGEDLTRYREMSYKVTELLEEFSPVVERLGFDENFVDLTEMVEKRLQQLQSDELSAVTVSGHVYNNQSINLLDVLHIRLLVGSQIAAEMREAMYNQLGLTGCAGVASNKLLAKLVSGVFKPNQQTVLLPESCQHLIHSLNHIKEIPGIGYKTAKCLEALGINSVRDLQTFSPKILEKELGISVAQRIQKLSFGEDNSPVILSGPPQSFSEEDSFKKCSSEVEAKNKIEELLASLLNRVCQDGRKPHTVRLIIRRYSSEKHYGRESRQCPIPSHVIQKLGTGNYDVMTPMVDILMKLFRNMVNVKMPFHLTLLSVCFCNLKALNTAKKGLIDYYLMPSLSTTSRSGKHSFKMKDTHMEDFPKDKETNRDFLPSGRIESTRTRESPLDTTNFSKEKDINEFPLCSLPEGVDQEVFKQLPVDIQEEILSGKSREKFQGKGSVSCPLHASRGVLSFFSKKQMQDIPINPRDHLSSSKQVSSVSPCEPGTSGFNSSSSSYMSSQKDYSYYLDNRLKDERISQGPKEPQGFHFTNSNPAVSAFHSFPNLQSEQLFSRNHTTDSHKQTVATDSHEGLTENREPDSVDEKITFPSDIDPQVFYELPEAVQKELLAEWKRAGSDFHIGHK

These compounds were tested against DNA polymerase iota (Homo sapiens) (UniProt Q9UNA4) (assay: qHTS for Inhibitors of Polymerase Iota). Conditions: Pol iota fluorescent replication assay, 10 min; series mostly up to 115 µM.
Outline: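 Fluorescent replication assay read twice, at 0 min and 10 min after adding 50 nM (final) substrate. Enzyme (10 nM) and compounds were first incubated 15 min at room temperature; enzyme-free buffer wells were negative controls.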
Potency is the fitted concentration of half-maximal effect.

Row | SMILES | Potency
1 | C#CCOCCOCCOCCNc1nc(N2CCN(C(=O)Cn3cc(CC(C)O)nn3)CC2)nc(N2CCN(C(=O)[C@H](C)n3cc(CCCN=C(N)N)nn3)CC2)n1 (some centres not stated) | inconclusive: 10 µM [inhibitor, full curve, poor fit]
2 | Cc1cccc(NC(=O)Cn2c(=O)oc3cc(S(=O)(=O)NCc4ccccc4)ccc32)c1 | inconclusive: 89.1 µM [inhibitor, single point]
3 | COc1ccc(CCNC(=O)Cn2nc(C)n3c(cc4occc43)c2=O)cc1OC | inactive
4 | Cc1cccc(C(=O)NNC(=O)c2ccccc2C)c1 | inconclusive: 89.1 µM [inhibitor, single point]
5 | O=C(NCc1ccc2c(c1)OCO2)c1nc(S(=O)(=O)Cc2ccccc2)ncc1Cl | inconclusive: 17.8 µM [inhibitor, partial curve, poor fit]
6 | O=C1N/C(=C/c2ccc(N3CCOCC3)o2)C(=O)N1c1cccc(Cl)c1 | inconclusive: 2.51 µM [inhibitor, full curve]
7 | CCOc1ccc(NC(=O)N(Cc2c[nH]c3ccccc23)C2CCCCC2)cc1 | inactive
8 | COc1cc(OC)c(NC(=O)CCn2cnc3onc(-c4ccc(F)cc4)c3c2=O)cc1Cl | inactive
9 | Cc1ccc(S(=O)(=O)[N-]c2nc3ccccc3nc2-[n+]2cc(C)cc(C)c2)cc1 | inconclusive: 3.16 µM [inhibitor, full curve]
10 | Cc1ccc(C)n1-c1sccc1C(=O)O | inactive
11 | Cc1ccc(C2c3[nH]c4ccccc4c3CCN2C(=O)Nc2ccc(C)c(C)c2)cc1 (configuration not stated) | inactive
12 | CN(C1=C(N2CCCCC2)C(=O)c2ccccc2C1=O)c1ccccc1 | inconclusive: 89.1 µM [inhibitor, partial curve, poor fit]
13 | Cc1n[nH]c(C)c1NC(=O)CN1CCN(S(=O)(=O)c2ccc(C(F)(F)F)cc2)CC1 | inconclusive: 10 µM [inhibitor, partial curve, poor fit]
14 | COC(=O)c1c(NC(=O)c2c(-c3ccccc3Cl)noc2C)sc2c1CCC2 | inconclusive: 4.47 µM [inhibitor, partial curve, poor fit]
15 | Cc1cc2c(SCC(=O)Nc3cccc(O)c3)ncnc2s1 | inconclusive: 12.6 µM [inhibitor, full curve, poor fit]
16 | CCCCCCCCc1c(O)nc(-n2[nH]c(C)c(CCO)c2=O)[nH]c1=O | inconclusive: 12.6 µM [inhibitor, partial curve, poor fit]
17 | Cc1ccc2cc3cc(C(=O)NCCCN4CCCCCC4)oc3nc2c1 | inconclusive: 12.6 µM [inhibitor, partial curve, poor fit]

Two entries drawn at random from those above:
Row | SMILES | Potency
13 | Cc1n[nH]c(C)c1NC(=O)CN1CCN(S(=O)(=O)c2ccc(C(F)(F)F)cc2)CC1 | inconclusive: 10 µM [inhibitor, partial curve, poor fit]
11 | Cc1ccc(C2c3[nH]c4ccccc4c3CCN2C(=O)Nc2ccc(C)c(C)c2)cc1 (configuration not stated) | inactive
